According to the supplement of paper PMC10849652:
The other results are listed elsewhere or left out.

Sequences of proteins named here, by UniProt entry; tags and fusion partners are left off. A change or cut given only in a name is not applied to a line headed by its entry.
UniProt O75794: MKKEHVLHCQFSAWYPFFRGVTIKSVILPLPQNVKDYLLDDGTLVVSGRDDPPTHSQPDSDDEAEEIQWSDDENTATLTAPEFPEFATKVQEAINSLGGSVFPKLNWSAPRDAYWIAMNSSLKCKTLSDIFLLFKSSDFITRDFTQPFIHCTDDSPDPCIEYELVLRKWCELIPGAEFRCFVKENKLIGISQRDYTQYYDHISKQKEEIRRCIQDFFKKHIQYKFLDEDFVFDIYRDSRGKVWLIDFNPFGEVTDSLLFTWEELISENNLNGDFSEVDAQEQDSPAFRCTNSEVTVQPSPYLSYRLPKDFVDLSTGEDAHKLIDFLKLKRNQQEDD
UniProt P30305: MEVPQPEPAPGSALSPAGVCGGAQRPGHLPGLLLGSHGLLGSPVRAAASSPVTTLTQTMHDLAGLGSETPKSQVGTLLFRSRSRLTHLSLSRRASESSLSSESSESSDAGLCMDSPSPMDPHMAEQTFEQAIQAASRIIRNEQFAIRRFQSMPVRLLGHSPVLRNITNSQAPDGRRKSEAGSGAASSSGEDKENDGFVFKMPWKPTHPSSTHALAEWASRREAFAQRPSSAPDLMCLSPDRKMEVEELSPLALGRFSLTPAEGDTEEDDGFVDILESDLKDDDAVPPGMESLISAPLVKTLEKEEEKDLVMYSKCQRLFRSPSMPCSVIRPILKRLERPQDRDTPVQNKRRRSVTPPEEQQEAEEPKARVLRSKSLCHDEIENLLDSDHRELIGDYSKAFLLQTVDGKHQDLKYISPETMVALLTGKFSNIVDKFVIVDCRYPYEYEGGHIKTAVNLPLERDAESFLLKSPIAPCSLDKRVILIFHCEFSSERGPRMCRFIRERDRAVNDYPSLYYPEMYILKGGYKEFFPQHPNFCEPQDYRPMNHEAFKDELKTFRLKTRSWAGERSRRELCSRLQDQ
UniProt P48509: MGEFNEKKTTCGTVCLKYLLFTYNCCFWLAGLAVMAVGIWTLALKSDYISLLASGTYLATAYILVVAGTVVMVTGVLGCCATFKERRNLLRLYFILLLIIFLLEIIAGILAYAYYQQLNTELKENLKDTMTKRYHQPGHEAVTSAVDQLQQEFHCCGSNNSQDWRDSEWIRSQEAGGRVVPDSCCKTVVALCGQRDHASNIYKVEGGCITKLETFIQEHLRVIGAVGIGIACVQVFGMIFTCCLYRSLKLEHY
UniProt Q13191, whole entry, looked up: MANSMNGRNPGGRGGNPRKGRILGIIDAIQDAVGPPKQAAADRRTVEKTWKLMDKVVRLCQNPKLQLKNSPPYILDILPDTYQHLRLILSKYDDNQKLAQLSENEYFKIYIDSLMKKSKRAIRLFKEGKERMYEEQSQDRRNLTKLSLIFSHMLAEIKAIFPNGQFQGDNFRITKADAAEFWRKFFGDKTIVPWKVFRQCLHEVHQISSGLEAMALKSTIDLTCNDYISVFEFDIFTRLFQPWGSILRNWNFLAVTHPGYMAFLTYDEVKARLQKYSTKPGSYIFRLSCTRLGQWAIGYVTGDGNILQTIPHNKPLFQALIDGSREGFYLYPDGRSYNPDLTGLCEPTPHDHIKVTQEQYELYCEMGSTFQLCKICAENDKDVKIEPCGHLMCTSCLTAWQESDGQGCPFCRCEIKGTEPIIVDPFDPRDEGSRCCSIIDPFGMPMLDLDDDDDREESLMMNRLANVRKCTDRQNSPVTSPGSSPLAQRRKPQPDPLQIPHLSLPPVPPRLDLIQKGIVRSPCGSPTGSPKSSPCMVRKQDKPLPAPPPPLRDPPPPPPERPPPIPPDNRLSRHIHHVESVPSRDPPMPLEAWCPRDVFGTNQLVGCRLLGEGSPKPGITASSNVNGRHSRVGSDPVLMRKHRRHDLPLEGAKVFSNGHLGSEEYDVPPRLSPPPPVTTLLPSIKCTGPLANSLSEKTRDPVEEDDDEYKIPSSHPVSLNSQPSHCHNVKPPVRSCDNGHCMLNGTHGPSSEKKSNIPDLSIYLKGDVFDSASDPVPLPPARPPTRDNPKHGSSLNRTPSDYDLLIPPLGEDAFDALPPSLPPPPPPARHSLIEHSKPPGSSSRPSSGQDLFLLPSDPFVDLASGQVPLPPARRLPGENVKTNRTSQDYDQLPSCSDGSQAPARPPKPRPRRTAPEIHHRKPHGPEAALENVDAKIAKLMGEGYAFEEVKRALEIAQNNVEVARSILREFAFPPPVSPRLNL
UniProt P60033: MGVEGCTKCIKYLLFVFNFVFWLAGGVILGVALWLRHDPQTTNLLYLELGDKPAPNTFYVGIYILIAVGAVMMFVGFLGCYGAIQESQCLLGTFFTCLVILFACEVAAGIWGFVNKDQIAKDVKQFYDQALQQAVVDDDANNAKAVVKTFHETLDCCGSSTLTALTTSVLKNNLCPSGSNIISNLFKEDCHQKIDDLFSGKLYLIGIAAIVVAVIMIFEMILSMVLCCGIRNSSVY
UniProt O75909: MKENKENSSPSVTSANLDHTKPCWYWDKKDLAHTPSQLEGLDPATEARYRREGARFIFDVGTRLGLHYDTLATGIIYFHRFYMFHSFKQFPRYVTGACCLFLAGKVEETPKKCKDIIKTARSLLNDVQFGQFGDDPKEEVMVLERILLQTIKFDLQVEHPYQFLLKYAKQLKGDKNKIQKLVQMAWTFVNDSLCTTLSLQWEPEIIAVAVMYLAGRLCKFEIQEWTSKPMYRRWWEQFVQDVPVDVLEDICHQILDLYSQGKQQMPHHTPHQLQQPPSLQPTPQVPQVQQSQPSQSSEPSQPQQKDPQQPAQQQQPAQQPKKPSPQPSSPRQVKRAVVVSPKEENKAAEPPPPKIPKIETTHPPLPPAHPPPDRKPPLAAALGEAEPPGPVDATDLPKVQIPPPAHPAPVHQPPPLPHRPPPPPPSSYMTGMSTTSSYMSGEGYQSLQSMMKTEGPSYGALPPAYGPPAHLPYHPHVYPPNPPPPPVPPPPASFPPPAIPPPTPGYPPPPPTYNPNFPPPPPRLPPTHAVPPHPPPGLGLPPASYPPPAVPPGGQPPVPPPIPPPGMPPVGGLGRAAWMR
UniProt Q14790: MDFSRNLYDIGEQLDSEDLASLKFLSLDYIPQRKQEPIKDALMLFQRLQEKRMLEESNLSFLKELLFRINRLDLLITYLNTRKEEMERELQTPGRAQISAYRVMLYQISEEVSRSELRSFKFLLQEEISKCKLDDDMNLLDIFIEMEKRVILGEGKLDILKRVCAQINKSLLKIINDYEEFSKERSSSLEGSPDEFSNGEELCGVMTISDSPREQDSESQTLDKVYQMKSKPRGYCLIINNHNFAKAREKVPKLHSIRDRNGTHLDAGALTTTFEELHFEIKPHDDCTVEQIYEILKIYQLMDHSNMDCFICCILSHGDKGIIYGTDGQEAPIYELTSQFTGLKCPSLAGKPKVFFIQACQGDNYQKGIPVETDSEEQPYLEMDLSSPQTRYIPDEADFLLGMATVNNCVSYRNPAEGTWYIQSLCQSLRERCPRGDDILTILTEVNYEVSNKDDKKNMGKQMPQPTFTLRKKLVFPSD
UniProt Q16204: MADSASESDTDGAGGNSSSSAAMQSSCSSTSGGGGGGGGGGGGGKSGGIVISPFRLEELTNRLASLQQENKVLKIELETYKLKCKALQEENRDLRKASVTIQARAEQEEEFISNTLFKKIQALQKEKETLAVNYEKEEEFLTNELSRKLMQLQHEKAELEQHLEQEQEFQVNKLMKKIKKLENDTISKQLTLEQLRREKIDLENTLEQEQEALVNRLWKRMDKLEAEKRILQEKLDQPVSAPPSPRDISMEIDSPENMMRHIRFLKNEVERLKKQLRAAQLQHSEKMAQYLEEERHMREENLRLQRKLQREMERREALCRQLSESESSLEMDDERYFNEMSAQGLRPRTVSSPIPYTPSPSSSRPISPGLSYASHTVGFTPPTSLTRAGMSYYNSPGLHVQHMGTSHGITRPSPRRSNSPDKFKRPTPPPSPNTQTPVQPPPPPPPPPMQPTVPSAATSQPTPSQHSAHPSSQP
UniProt Q6NZI2: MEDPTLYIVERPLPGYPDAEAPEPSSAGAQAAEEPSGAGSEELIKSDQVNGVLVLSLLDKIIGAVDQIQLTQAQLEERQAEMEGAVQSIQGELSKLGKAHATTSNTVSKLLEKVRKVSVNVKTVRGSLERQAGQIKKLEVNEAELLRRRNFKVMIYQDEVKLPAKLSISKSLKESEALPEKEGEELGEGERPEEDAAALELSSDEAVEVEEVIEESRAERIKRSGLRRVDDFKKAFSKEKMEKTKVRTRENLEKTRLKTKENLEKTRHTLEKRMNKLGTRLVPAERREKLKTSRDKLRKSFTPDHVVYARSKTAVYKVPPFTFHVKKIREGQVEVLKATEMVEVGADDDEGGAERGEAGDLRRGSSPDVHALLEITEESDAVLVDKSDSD
UniProt P14635, whole entry, looked up: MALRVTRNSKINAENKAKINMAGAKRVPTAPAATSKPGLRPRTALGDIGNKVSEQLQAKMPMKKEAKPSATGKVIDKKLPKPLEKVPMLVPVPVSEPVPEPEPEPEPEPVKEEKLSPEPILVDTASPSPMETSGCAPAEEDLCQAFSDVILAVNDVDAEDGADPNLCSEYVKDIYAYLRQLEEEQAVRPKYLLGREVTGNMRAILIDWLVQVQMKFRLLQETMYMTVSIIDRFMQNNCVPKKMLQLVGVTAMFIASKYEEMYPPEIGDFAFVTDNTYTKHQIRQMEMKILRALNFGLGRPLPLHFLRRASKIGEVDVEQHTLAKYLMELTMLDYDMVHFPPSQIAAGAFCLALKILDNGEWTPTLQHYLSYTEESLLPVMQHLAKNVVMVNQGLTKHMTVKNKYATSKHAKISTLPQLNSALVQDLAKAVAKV
UniProt Q9P031: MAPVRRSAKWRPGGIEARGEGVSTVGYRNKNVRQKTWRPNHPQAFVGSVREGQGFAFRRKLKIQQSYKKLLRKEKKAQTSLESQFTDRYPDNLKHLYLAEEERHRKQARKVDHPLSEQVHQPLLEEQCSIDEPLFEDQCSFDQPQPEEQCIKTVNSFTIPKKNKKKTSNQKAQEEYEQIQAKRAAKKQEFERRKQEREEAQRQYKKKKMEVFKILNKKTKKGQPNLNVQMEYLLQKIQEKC
UniProt A6NKD9: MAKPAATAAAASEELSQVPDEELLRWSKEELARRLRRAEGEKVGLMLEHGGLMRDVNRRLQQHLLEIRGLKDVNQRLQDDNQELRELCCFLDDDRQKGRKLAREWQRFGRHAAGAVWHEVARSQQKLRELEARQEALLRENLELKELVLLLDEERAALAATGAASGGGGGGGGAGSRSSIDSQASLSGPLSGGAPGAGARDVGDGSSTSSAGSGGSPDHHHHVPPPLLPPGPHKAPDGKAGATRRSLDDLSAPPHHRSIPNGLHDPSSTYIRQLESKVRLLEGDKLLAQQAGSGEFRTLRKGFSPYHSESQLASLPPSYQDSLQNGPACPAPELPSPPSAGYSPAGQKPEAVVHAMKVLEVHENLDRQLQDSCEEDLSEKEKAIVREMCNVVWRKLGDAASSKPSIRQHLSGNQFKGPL
UniProt P42575: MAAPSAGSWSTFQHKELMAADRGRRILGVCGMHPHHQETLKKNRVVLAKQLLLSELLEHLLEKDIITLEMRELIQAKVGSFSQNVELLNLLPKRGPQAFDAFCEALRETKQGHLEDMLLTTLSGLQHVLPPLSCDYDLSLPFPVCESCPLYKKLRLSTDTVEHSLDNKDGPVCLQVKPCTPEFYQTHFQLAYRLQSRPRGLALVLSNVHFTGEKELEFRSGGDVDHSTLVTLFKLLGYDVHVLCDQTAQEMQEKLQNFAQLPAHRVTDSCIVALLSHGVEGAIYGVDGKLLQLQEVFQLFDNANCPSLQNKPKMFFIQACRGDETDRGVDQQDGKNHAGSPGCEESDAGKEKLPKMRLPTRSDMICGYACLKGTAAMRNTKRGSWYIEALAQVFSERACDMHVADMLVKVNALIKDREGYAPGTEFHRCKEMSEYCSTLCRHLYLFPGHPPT
UniProt O60563, whole entry, looked up: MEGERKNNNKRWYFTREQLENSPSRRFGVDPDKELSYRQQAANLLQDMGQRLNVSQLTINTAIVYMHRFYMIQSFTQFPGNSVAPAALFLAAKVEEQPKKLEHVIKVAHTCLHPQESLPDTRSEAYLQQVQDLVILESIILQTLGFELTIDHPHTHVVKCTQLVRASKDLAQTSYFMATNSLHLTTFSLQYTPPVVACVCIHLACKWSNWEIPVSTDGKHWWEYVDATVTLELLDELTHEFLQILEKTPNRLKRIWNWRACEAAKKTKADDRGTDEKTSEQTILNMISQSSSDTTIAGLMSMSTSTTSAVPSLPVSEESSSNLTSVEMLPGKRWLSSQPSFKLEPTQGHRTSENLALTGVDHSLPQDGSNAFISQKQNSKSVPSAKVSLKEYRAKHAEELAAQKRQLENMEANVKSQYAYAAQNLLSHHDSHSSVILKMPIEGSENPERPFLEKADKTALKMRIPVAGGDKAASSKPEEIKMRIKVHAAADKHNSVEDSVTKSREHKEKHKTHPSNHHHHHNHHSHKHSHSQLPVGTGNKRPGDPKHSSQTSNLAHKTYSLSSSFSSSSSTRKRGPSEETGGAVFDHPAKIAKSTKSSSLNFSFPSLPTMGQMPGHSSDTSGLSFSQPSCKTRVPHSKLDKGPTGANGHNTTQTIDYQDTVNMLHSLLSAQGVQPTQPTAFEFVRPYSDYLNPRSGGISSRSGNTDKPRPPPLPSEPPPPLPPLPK

Legend:
Assay in all cases: log2 fold change, soluble protein after heating vs DMSO (PISA); higher = thermal stabilisation; K562 cells, 10 uM, 30 min; active = over 0.2 and 3.5 SD of the protein, either way, in both replicates (recomputed)
[1] = compound: NC(=O)Nc1cc(-c2cccc(F)c2)sc1C(=O)N[C@H]1CCCNC1
Method in brief: (§1)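 K562 cells at 2×10^6 cells/mL were treated with 10 μM compound for 30 min. Aliquots were heated for 3 min across 48°C-58°C, pooled, and extracted in PBS with 0.5% NP-40 at 4°C; soluble protein was the supernatant after 21,000xg for 90 min. Soluble protein was quantified by TMTpro 16plex LC-MS/MS with channel sums equalised, and reported as log2 fold change in thermal stability against DMSO controls, with values from duplicates.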

[2] = compound: NC(=O)c1cnc(N[C@@H]2CCCC[C@@H]2N)nc1Nc1cccc(-n2nccn2)c1
Method in brief: as §1

[3] = compound: NC1(c2ccc(-c3nc4ccn5c(=O)[nH]nc5c4cc3-c3ccccc3)cc2)CCC1
Method in brief: as §1

[4] = compound: NCC(=O)Nc1ccc(-n2nc(C(F)(F)F)cc2-c2ccc3c(ccc4ccccc43)c2)cc1
Method in brief: as §1

entinostat = compound: Nc1ccccc1NC(=O)c1ccc(CNC(=O)OCc2cccnc2)cc1 [entinostat]
Method in brief: as §1

vorinostat = compound: O=C(CCCCCCC(=O)Nc1ccccc1)NO [vorinostat]
Method in brief: as §1

citarinostat = compound: O=C(CCCCCCNC(=O)c1cnc(N(c2ccccc2)c2ccccc2Cl)nc1)NO [citarinostat]
Method in brief: as §1

silmitasertib = compound: O=C(O)c1ccc2c(c1)nc(Nc1cccc(Cl)c1)c1ccncc12 [silmitasertib]
Method in brief: as §1

[5] = compound: O=C1NC(=O)C(c2cnc3ccccn23)=C1c1cn2c3c(cc(F)cc13)CN(C(=O)N1CCCCC1)CC2
Method in brief: as §1

[6] = compound: c1cc(OCCN2CCCCC2)cc(-c2n[nH]c3ccc(-c4nnc[nH]4)cc23)c1
Method in brief: as §1

entospletinib = compound: c1cn2cc(-c3ccc4cn[nH]c4c3)nc(Nc3ccc(N4CCOCC4)cc3)c2n1 [entospletinib]
Method in brief: as §1

Measured: log2 fold change

CBX1 (UniProt P83916)
inactive: [1] 0.02 | [2] -0.032 | [3] 0.025 | [4] 0.004 | entinostat 0.017 | vorinostat -0.036 | citarinostat -0.035 | silmitasertib 0.045 | [5] 0.006 | [6] -0.034

CDC123 (UniProt O75794)
inactive: [1] -0.029 | [2] 0.045 | [3] -0.077 | [4] -0.01 | entinostat 0.026 | vorinostat 0.032 | citarinostat 0.045 | silmitasertib -0.048 | [5] 0.011 | [6] -0.056

CCDC9 (UniProt Q9Y3X0)
inactive: [1] 0.021 | [2] 0.034 | [3] 0.121 | [4] 0.02 | entinostat -0.088 | vorinostat -0.051 | citarinostat -0.069 | silmitasertib -0.051 | [5] 0.021 | [6] -0.015

CD55 isoform 7 (UniProt P08174)
inactive: [1] -0.048 | [2] 0.028 | [3] 0.128 | [4] 0.108 | entinostat 0.018 | vorinostat -0.044 | citarinostat 0.009 | silmitasertib -0.006 | [5] -0.043 | [6] -0.047

CDC25B isoform 4 (UniProt P30305)
inactive: [1] -0.04 | [2] -0.07 | [3] -0.157 | [4] 0.088 | entinostat 0.047 | vorinostat 0.071 | citarinostat 0.115 | silmitasertib 0.054 | [5] 0.014 | [6] -0.123

CD151 (UniProt P48509)
inactive: [1] -0.054 | [2] 0.139 | [3] 0.125 | [4] 0.024 | entinostat 0.094 | vorinostat -0.025 | citarinostat -0.007 | silmitasertib 0.031 | [5] -0.063 | [6] -0.009

CBS (UniProt P35520)
inactive: [1] -0.008 | [2] 0.006 | [3] -0.025 | [4] 0.016 | entinostat -0.033 | vorinostat -0.031 | citarinostat -0.058 | silmitasertib -0.038 | [5] -0.027 | [6] 0.027

CCAR1 (UniProt Q8IX12)
inactive: [1] 0 | [2] -0.068 | [3] -0.198 | [4] -0.035 | entinostat 0.021 | vorinostat 0.067 | citarinostat 0.018 | silmitasertib -0.049 | [5] -0.043 | [6] -0.016

CDC26 (UniProt Q8NHZ8)
inactive: [1] 0.034 | [2] 0.352 | [3] 0.152 | entinostat 0.097 | vorinostat 0.019 | citarinostat -0.025 | silmitasertib -0.003 | [5] 0.007 | [6] -0.003
active: [4] 0.704

CBLB (UniProt Q13191)
inactive: [1] -0.009 | [2] -0.02 | [3] 0.008 | [4] -0.17 | entinostat -0.042 | vorinostat 0 | citarinostat 0.089 | silmitasertib 0.007 | [5] -0.135 | [6] -0.054 | entospletinib -0.015

CD81 (UniProt P60033)
inactive: [1] -0.051 | [2] 0.222 | [3] 0.21 | [4] 0.231 | entinostat -0.028 | vorinostat -0.074 | citarinostat 0.065 | silmitasertib 0.052 | [5] 0.066 | [6] -0.166

CCNK isoform 4 (UniProt O75909)
active: [6] -0.305
inactive: [1] -0.053 | [2] -0.104 | [3] 0.044 | [4] -0.091 | entinostat -0.044 | vorinostat -0.021 | citarinostat -0.007 | silmitasertib -0.046 | [5] 0.006

CASP10 isoform 4 (UniProt Q92851)
inactive: [1] -0.089 | [2] -0.058 | [3] -0.084 | [4] -0.055 | entinostat -0.05 | vorinostat 0.258 | citarinostat 0.123 | silmitasertib 0.076 | [5] 0.089 | [6] -0.13

CDC37L1 (UniProt Q7L3B6)
inactive: [1] -0.061 | [2] -0.074 | [3] 0.018 | [4] 0.033 | entinostat -0.011 | vorinostat -0.017 | citarinostat -0.064 | silmitasertib 0.07 | [5] -0.022 | [6] -0.102

CCAR2 isoform 2 (UniProt Q8N163)
inactive: [1] -0.056 | [2] -0.106 | [3] -0.013 | [4] -0.088 | entinostat 0.089 | vorinostat 0.168 | citarinostat 0.033 | silmitasertib -0.039 | [5] -0.151 | [6] 0.033

CASP8 isoform 9 (UniProt Q14790)
inactive: [1] -0.06 | [2] -0.051 | [3] -0.186 | [4] -0.151 | entinostat -0.119 | vorinostat -0.021 | citarinostat -0.048 | silmitasertib 0.12 | [5] 0.008 | [6] 0.009

CCDC6 (UniProt Q16204)
inactive: [1] -0.004 | [2] 0.007 | [3] 0.001 | [4] -0.001 | entinostat -0.008 | vorinostat -0.012 | citarinostat 0.02 | silmitasertib -0.03 | [5] -0.045 | [6] 0.009 | entospletinib -0.033

CAVIN1 (UniProt Q6NZI2)
inactive: [1] 0.034 | [2] -0.07 | [3] 0.046 | [4] 0.074 | entinostat 0.008 | vorinostat 0.004 | citarinostat -0.004 | silmitasertib 0.041 | [5] 0.108 | [6] -0.087

CAT (UniProt P04040)
inactive: [1] 0.003 | [2] 0.001 | [3] 0.008 | [4] 0.018 | entinostat -0.016 | vorinostat 0.004 | citarinostat -0.013 | silmitasertib -0.023 | [5] -0.025 | [6] 0.012 | entospletinib -0.019

CDAN1 (UniProt Q8IWY9)
inactive: [1] -0.033 | [2] -0.042 | [3] -0.192 | [4] -0.091 | entinostat 0.051 | vorinostat 0.022 | citarinostat -0.011 | silmitasertib 0.095 | [5] 0.036 | [6] -0.018

CASTOR2 (UniProt A6NHX0)
inactive: [1] 0.076 | [2] 0.113 | [3] -0.034 | [4] 0.06 | entinostat -0.072 | vorinostat 0.056 | citarinostat 0.04 | silmitasertib -0.03 | [5] -0.005 | [6] 0.076

CASP6 (UniProt P55212)
inactive: [1] 0.01 | [2] 0.047 | [3] -0.008 | [4] 0.035 | entinostat 0 | vorinostat -0.044 | citarinostat 0 | silmitasertib -0.02 | [5] -0.018 | [6] 0.004 | entospletinib -0.027

CCNB1 (UniProt P14635)
inactive: [1] -0.031 | [2] -0.015 | [3] -0.03 | [4] 0.016 | entinostat -0.002 | vorinostat 0 | citarinostat 0.031 | silmitasertib -0.015 | [5] -0.076 | [6] -0.032

Fetched one by one from the list above (two):
CCAR2 isoform 2 (UniProt Q8N163)
inactive: [1] -0.056 | [2] -0.106 | [3] -0.013 | [4] -0.088 | entinostat 0.089 | vorinostat 0.168 | citarinostat 0.033 | silmitasertib -0.039 | [5] -0.151 | [6] 0.033

CASTOR2 (UniProt A6NHX0)
inactive: [1] 0.076 | [2] 0.113 | [3] -0.034 | [4] 0.06 | entinostat -0.072 | vorinostat 0.056 | citarinostat 0.04 | silmitasertib -0.03 | [5] -0.005 | [6] 0.076

(continued)

CCDC59 (UniProt Q9P031)
inactive: [1] -0.033 | [2] 0.122 | [3] 0.166 | [4] 0.139 | entinostat -0.149 | vorinostat -0.099 | citarinostat -0.178 | silmitasertib 0.154 | [5] 0.21 | [6] 0.07

CCDC22 (UniProt O60826)
inactive: [1] 0.052 | [2] -0.023 | [3] -0.16 | [4] -0.093 | entinostat -0.034 | vorinostat 0.009 | citarinostat 0.022 | silmitasertib 0.067 | [5] 0.079 | [6] 0.018 | entospletinib 0.001

CCDC85C (UniProt A6NKD9)
inactive: [1] -0.127 | [2] 0.009 | [3] -0.022 | [4] 0.022 | entinostat -0.235 | vorinostat 0.087 | citarinostat -0.006 | silmitasertib 0.136 | [5] -0.035 | [6] -0.1 | entospletinib 0.159

CASP2 (UniProt P42575)
inactive: [1] -0.317 | [2] -0.047 | [3] -0.099 | [4] 0.065 | entinostat 0.017 | vorinostat 0.13 | citarinostat 0.058 | silmitasertib 0.051 | [5] -0.008 | [6] -0.032

CCNT1 (UniProt O60563)
inactive: [1] -0.027 | [2] -0.03 | [3] -0.021 | [4] -0.02 | entinostat 0.034 | vorinostat 0.176 | citarinostat 0.053 | silmitasertib 0 | [5] 0.047 | [6] -0.094

CAST isoform 6 (UniProt P20810)
inactive: [1] -0.002 | [2] -0.028 | [3] 0.031 | [4] -0.005 | entinostat -0.05 | vorinostat -0.046 | citarinostat 0.01 | silmitasertib -0.016 | [5] -0.058 | [6] 0.016 | entospletinib 0.029
